# Source: publication PMC4012464 (Marine Drugs, 2014)
# Non-standard residues stand in square brackets, D forms with d. *: point of attachment. dNMeF = CN[C@H](Cc1ccccc1)C(=O)O; Boc = CC(C)(C)OC(=O)*
# Experiment: general procedure: solution-phase peptide synthesis; EDC/HOAt
# Conditions: coupling step
row,Substance,step yield
1,Boc-IG[dNMeF]P-OMe,73%
2,HO-Hmp-Leu-N-Me-D-Gln-Ile-Gly-OBn,60%
3,HO-Hmp-Leu-N-Me-D-Gln-Ile-OBn,85%
4,"N,N-Me2-Ile-Gly-N-Me-D-Phe-Pro-OMe",24%

# Experiment: peptide synthesis
# Conditions: coupling step
row,Substance,step yield
1,HO-Hmp-Leu-D-Gln-Ile-Gly-D-Phe-NH-Bn,32%
2,HO-Hmp-Leu-D-Gln-Ile-Gly-N-Me-D-Phe-NH-Bn,75%
3,HO-Hmp-Leu-N-Me-Ala-Ile-Gly-N-Me-D-Phe-NH-Bn,63%
4,HO-Hmp-Leu-N-Me-D-Gln-Ile-Gly-D-Phe-NH-Bn,35%
5,HO-Hmp-Leu-N-Me-D-Gln-Ile-Gly-N-Me-D-Phe-NH-Bn,77%
6,HO-Hmp-Leu-N-Me-D-Gln-Ile-Gly-N-Me-D-Phe-NH-MTC,67%
7,HO-Hmp-Leu-N-Me-D-Gln-Ile-Gly-N-Me-D-Phe-NH-Ph,67%
8,HO-Hmp-Leu-N-Me-D-Gln-Ile-Gly-N-Me-D-Phe-NH-TIQ,59%
9,HO-Hmp-Leu-N-Me-Gln-Ile-Gly-N-Me-D-Phe-NH-Bn,63%
10,HO-Hmp-Leu-N-Me-Gln-Ile-Gly-N-Me-D-Phe-NH-MTC,60%
11,HO-Hmp-Leu-N-Me-Gln-Ile-Gly-N-Me-D-Phe-NH-Ph,75%
12,HO-Hmp-Leu-N-Me-Gln-Ile-Gly-N-Me-D-Phe-NH-TIQ,60%

# Same assay, conditions: late stage modification step
row,Substance,step yield
1,"N,N-Me2-D-Gln-Ile-Gly-N-Me-D-Phe-Pro-OMe",97%
